# Screen size: about 73,000 compounds; about 1,800 (2.5%) were called active. Listed are the inconclusive results; actives and inactives stand elsewhere. Calls come from the whole dose curve; as a rule, active = well fitted activation curve with a large enough effect; inconclusive = small, poorly fitted or top-dose-only effect; inactive = no such curve, though single readings can be large or run the other way.
# Experiment: qHTS Assay for Agonists of the Thyroid Stimulating Hormone Receptor: Activators of Intracellular cAMP Concentrations in Parental HEK 293; note: nearly all actives have a fitted effect of over 55% in size
# Settings: parental HEK293 CNG cAMP sensor, membrane potential fluorescence
# Potency is the fitted concentration of half-maximal effect.
row,Structure (SMILES),Potency
1,CCC(C)(OO)OOC(C)(CC)OO (stereo unspecified),inconclusive: 39.8 µM

# Reference: PubChem BioAssay AID938 (National Center for Advancing Translational Sciences (NCATS), 2007)
